Tests used:
[1] = in vivo; conditions: male, Wistar, rat, im
[2] = Plasma pharmacokinetics after single i.m. injection in rats (HPLC-UV); conditions: male, Wistar, rat, in vivo, im
[3] = higher in old, ref [31]; cited from earlier work

In the case of `COc1cc2c(cc1OC)C(=O)C(CC1CCN(Cc3ccccc3)CC1)C2` (centres unmarked) [Donepezil], the CL/F [1] is reported as 1000 ± 130 mL/min/kg, the Tmax [1] is reported as 22 min and the half-life [1] is reported as 57.1 ± 10.1 min. The Vd/F [2] was 82.1 ± 13.9 L/kg and the “brain concentration in old rats compared to young animals” value [3] was 1.8 fold.

Source: article PMC7758017 (Iranian Journal of Pharmaceutical Research : IJPR, 2020)
